Patent CN112778416A
These are yes or no findings as the source states them, for the method shown. Some entries that bind do so weakly or less than the wild type. One block for each binder: values may come before it.

Protein sequences, listed by entry. Tags and fused reporters are not part of them. Residues count along the entry.
UniProt P05231, residues 30-212: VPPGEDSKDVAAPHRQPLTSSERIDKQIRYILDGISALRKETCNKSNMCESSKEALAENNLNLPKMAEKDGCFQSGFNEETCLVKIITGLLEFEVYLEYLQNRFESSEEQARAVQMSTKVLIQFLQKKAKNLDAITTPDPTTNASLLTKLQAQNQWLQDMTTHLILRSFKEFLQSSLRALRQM

How the values were obtained:
白介素-6 (IL-6) [1] = biological target: 白介素-6 (IL-6) (UniProt P05231); experiment: SPR, IL-6 amine-coupled to CM5 chip, bivalent polypeptide injected
白介素-6 (IL-6) [2] = biological target: 白介素-6 (IL-6) (UniProt P05231); experiment: SPR, IL-6 amine-coupled to CM5 chip, nanobody injected

binding (白介素-6 (IL-6) [1]): binds
B1: 二价多肽 SEQ ID NO 18 (VHH)
chain: QVQLVESAGGLVQPGGSLRLSCAASGRFTGGSPMGWYRQAPGKRRELVADIMGRGGSNTYADSVKGRFTISRDNAKNTVYLQMNSLKPEDTAVYYCAEAERVSGLLLEVVAEPRGDDYWGQGTQVTVSSGGGGSGGGGSGGGGSQVQLVESAGGLVQPGGSLRLSCAASGRFTGGSPMGWYRQAPGKRRELVADIMGRGGSNTYADSVKGRFTISRDNAKNTVYLQMNSLKPEDTAVYYCAEAERVSGLLLEVVAEPRGDDYWGQGTQVTVSS

binding (白介素-6 (IL-6) [1]): binds
B2: 二价多肽bvCNb20-1 (VHH)
chain: QVQLQESGGGSVQAGGSLRLSCAASSGILEIFNAMAWFRQAPGKEREWVARIMGSPYGSTEYYADSVKGRFTFSQDNAKNTVYLQMDSLEPEDTATYYCHSAGYDPRGDDYWGQGTQVTVSSGGGGSGGGGSGGGGSQVQLQESGGGSVQAGGSLRLSCAASSGILEIFNAMAWFRQAPGKEREWVARIMGSPYGSTEYYADSVKGRFTFSQDNAKNTVYLQMDSLEPEDTATYYCHSAGYDPRGDDYWGQGTQVTVSS

binding (白介素-6 (IL-6) [2]): binds
B3: 人源化纳米抗体hCNb20-1 (VHH)
VHH: EVQLVESGGGSVQAGGSLRLSCAASSGILEIFNAMSWFRQAPGKEREWVSAIMGSPYGSTEYYADSVKGRFTFSQDNAKNTVYLQMDSLRPEDTATYYCHSAGYDPRGDDYWGQGTLVTVSS
